Source: the supplement of paper PMC6078165
Values are relative to the signal before dosing, not to a vehicle control; the signal also falls without drug.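 Labels refer to human fibroblasts, largely primary: uterine (C12385, HUF), lung (H6013), bone (Hs27A), adrenal (HADF), skin (WS1), plus mammary HMF and breast cancer-associated Hs343T. Cancer lines are basal-like or mesenchymal-like triple-negative breast cancer. The paper counts as hits responses shifting over 3x the replicate standard deviation. The tissue of the other fibroblasts is not given here.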

Tested on: Hs578T
Assay: relative JC-1 red fluorescence (viability) vs pre-drug, coculture with fibroblast (fraction); higher = more viable cancer cells
Method: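 JC-1 labelled TNBC cells cocultured 1:1 (1,500 cells each) with CellTrace Violet stained primary or stromal fibroblasts in 384-well plates in FluoroBrite medium, treated with one of 42 anticancer drugs at 0.1, 1, 10 or 100 uM. JC-1 red fluorescence (mitochondrial integrity in cancer cells only) was read by plate reader every 8 h for 72 h. Values are normalised to each well's pre-drug value. The stock of one drug was tenfold lower, so its dose labels may be too high.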

CC(C)C[C@H](NC(=O)[C@H](Cc1ccccc1)NC(=O)c1cnccn1)B(O)O [Bortezomib]
relative JC-1 red fluorescence
Settings	8 h	16 h	24 h	32 h	40 h	48 h	56 h	64 h	72 h
10 µM	0.905	0.6	0.487	0.48	0.446	0.429	0.4302	0.4105	0.412
100 µM	0.9061	0.666	0.576	0.566	0.546	0.533	0.533	0.518	0.524

relative JC-1 red fluorescence
Settings	8 h	16 h	24 h	32 h	40 h	48 h	56 h	64 h	72 h
10 µM, coculture fibroblast: C12385	0.7718	0.5357	0.498	0.402	0.365	0.354	0.345	0.346	0.348
10 µM, coculture fibroblast: H6013	0.755	0.573	0.547	0.551	0.553	0.566	0.562	0.568	0.554
10 µM, coculture fibroblast: H6019	0.7326	0.593	0.612	0.546	0.546	0.553	0.552	0.578	0.584
10 µM, coculture fibroblast: H6076	0.9043	0.614	0.516	0.529	0.514	0.538	0.545	0.557	0.57
10 µM, coculture fibroblast: H6231	0.898	0.5642	0.533	0.52017	0.471	0.469	0.445	0.444	0.442
10 µM, coculture fibroblast: HADF	0.799	0.601	0.494	0.46	0.438	0.425	0.405	0.3961	0.3761
10 µM, coculture fibroblast: HCFa	0.7388	0.533	0.479	0.45	0.441	0.443	0.439	0.441	0.422
10 µM, coculture fibroblast: HCPF	0.873	0.645	0.576	0.581	0.536	0.53	0.54	0.512	0.504
10 µM, coculture fibroblast: HHSteC	0.749	0.521	0.46	0.445	0.43	0.422	0.418	0.412	0.395
10 µM, coculture fibroblast: HMF	0.8735	0.658	0.607	0.604	0.569	0.563	0.559	0.561	0.563
10 µM, coculture fibroblast: HPFa	0.844	0.638	0.6148	0.605	0.606	0.599	0.583	0.581	0.554
10 µM, coculture fibroblast: HUF	0.803	0.58	0.577	0.5	0.47	0.458	0.444	0.449	0.441
10 µM, coculture fibroblast: Hs27A	0.859	0.562	0.523	0.513	0.509	0.519	0.508	0.515	0.492
10 µM, coculture fibroblast: Hs343T	0.902	0.625	0.5421	0.5383	0.4902	0.486	0.4757	0.4712	0.4771
10 µM, coculture fibroblast: WS1	0.7553	0.543	0.512	0.416	0.382	0.38	0.36	0.371	0.37
100 µM, coculture fibroblast: C12385	0.7903	0.587	0.507	0.425	0.383	0.365	0.352	0.349	0.345
100 µM, coculture fibroblast: H6013	0.836	0.631	0.511	0.502	0.497	0.496	0.491	0.5	0.485
100 µM, coculture fibroblast: H6019	0.781	0.558	0.55	0.478	0.466	0.469	0.47	0.483	0.483
100 µM, coculture fibroblast: H6076	0.9098	0.5581	0.5	0.502	0.487	0.5	0.499	0.496	0.506
100 µM, coculture fibroblast: H6231	0.877	0.605	0.486	0.521	0.467	0.454	0.431	0.415	0.409
100 µM, coculture fibroblast: HADF	0.88	0.73	0.61	0.581	0.553	0.547	0.514	0.503	0.471
100 µM, coculture fibroblast: HCFa	0.827	0.623	0.549	0.541	0.533	0.537	0.522	0.525	0.498
100 µM, coculture fibroblast: HCPF	0.9003	0.658	0.507	0.4985	0.4519	0.445	0.4372	0.4116	0.4065
100 µM, coculture fibroblast: HHSteC	0.8874	0.623	0.56	0.529	0.497	0.476	0.456	0.444	0.423
100 µM, coculture fibroblast: HMF	0.9215	0.724	0.50388	0.4858	0.442	0.428	0.411	0.409	0.401
100 µM, coculture fibroblast: HPFa	0.877	0.629	0.551	0.529	0.516	0.503	0.478	0.467	0.444
100 µM, coculture fibroblast: HUF	0.866	0.643	0.642	0.563	0.531	0.512	0.492	0.493	0.485
100 µM, coculture fibroblast: Hs27A	0.856	0.716	0.654	0.618	0.568	0.557	0.524	0.507	0.467
100 µM, coculture fibroblast: Hs343T	0.938	0.682	0.442	0.449	0.411	0.4	0.386	0.378	0.383
100 µM, coculture fibroblast: WS1	0.785	0.53	0.487	0.397	0.36	0.349	0.332	0.333	0.33
